Data on one molecule can be found in article PMC7857391.

Sequences of proteins named here, by UniProt entry; tags and fusion partners are left off. Residues count along the entry.
UniProt O14786, residues 22-923: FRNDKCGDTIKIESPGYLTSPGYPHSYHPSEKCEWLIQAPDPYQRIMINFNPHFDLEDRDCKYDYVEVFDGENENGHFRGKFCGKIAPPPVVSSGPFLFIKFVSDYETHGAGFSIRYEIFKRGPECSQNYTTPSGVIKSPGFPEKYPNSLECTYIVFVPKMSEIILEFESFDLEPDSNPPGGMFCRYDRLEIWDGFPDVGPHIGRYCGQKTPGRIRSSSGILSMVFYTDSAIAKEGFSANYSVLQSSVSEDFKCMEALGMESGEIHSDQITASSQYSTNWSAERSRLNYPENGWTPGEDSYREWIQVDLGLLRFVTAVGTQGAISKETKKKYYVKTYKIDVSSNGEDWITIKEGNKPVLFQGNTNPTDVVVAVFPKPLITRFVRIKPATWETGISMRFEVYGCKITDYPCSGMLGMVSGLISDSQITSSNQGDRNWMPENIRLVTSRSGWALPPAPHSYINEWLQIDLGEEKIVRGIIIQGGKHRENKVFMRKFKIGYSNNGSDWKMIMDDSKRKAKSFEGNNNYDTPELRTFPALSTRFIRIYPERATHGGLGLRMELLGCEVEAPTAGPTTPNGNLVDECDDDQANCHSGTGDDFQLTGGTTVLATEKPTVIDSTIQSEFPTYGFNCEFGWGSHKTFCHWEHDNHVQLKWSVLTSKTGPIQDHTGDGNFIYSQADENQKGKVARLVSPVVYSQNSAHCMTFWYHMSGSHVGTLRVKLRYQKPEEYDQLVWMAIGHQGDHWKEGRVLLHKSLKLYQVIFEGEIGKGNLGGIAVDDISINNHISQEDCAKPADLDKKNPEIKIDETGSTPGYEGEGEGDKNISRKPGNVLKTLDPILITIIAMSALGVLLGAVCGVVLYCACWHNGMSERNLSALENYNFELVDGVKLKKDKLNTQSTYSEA

This assay concerns the target neuropilin-1 (NRP1) on the cells of fig. S2 (UniProt O14786). The assay can be described thus: binding of peptide-coated silver nanoparticles to cells; 80-nm silver nanoparticles (AgNP) coated with RPARPAROH added to cells, with mAb3 or mAb2; cells not named in the text shown; only the binder purified.

Results are given in words; binding and its absence hold for the method and conditions named. Some results given as binding are weak or reduced against the parent protein; the word gives no strength.

Turning to RPARPAR [prototypic NRP1-binding CendR peptide RPARPAROH], the binding result is listed as “binds”.
